Data reported in PubChem BioAssay AID1347423 (Functional Genomics Laboratory (NCATS/FGL), 2020).
Out of some 52,000 sequences screened, about 210 (0.4%) were called active.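 The calls were made as follows: active = gene whose silencing raises cell survival under the drug, median off-target-corrected z-score across its silencing RNAs 2 or more; inactive = the rest.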 The list shows a part of the results.

Assay: Resistance to Poly (ADP-Ribose) Polymerase inhibitor: Gene Identification via Genome-wide siRNA Screen
Conditions: mouse BRCA2 R2336H ES cells, olaparib, CellTiter-Glo viability; stronger effect = higher value
Summary of the method: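 Genome-wide siRNA screen (3 siRNAs/gene, 20 nM) in mouse ES cells carrying hypomorphic BRCA2 R2336H; olaparib 500 nM added 48 h post-transfection, CellTiter-Glo viability 72 h later. Normalized to plate-median negative control; MAD z-scores, gene median, seed-adjusted.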

| Sequence | z-score |
| --- | --- |
| GCUAUGUCAACAGUAACAUTT against Mell1 | inactive: -1.2 |
| ACUCAAUGUGCUCAAAAAATT against Scnm1 | inactive: 0.0832 |
| GCCCAAAUCGCUUACUCAUTT against Rtn4ip1 | inactive: -1.26 |
| GGUGCAACAAUCAUUUGAATT against Casp4 | inactive: 0.187 |
| GGCUCUUUUCUCUUUGCUGTT against F730108M23Rik | inactive: -0.31 |
| CUUUGCUCUAUCUCUCAGCTT against Olfr504 | inactive: -0.122 |
| CCAUCGAGUAAAGUUUGAATT against AY616753 | inactive: -0.537 |
| GGACAACAUUGCCUGUACUTT against Islr | inactive: -1.45 |
| GGUAGCCAAACUUCGUCGATT against Trim37 | inactive: -0.889 |
| CCCAUGCUCUCAAGACCAATT against Epn3 | inactive: 0.597 |
| CCUUUCCUACUCCCAACACTT against Egr1 | inactive: 0.197 |
| GGCUUGUUCAAGAGAAGAUTT against 4933406J04Rik | inactive: -1.1 |
| GGAGGUAAAAAGUGCCUUATT against Olfr1040 | inactive: -0.0372 |
| GGGCGACUAUGUGUGGACUTT against Mmp19 | inactive: 1.97 |
| GGCUACACAGAAUAAUAAATT against Rpl14 | inactive: -3.08 |
| GGACAGCUGGACCUAAAGGTT against Slco4a1 | inactive: 0.623 |
| GGUGAAGAAUCCACCUGAUTT against Eva1 | inactive: -0.726 |
| CCCUCUAAGAAUUAAAAAGTT against BC060631 | inactive: 1.11 |
| CCAUUGACUCCUUCAUCUUTT against Olfr988 | inactive: 0.944 |
| GCAACAGGUUAGAAUAGACTT against Scd3 | inactive: -0.34 |
| CGAACAUCUCAGCAGUGAATT against Dapk3 | inactive: 0.356 |
| GCAGAUUUUGACUAAAGGATT against Sbds | inactive: 1.12 |
| GGUGCAAGAUCAAGAACUGTT against C1r | inactive: -1.09 |
| GCUGAGAGUAUCCUUAUUCTT against 6330505N24Rik | inactive: -0.187 |
| CCGAAAUCAUCUGAGAGCGTT against Rhced | inactive: 1.01 |
| CCGUAUGUAACCAUCAAAGTT against Ncf1 | inactive: -0.395 |
| GGAUCUUAAGAAGUUCCAATT against 0710001P09Rik | inactive: -0.902 |
| GCCAAGUGGGACAAAUUCGTT against Dnchc2 | inactive: 0.994 |
| CCUUCCAGGAUUUAUUGUGTT against Nr2f1 | inactive: 0.405 |

No new results follow: entries from further up.

| Sequence | z-score |
| --- | --- |
| GGUGCAAGAUCAAGAACUGTT against C1r | inactive: -1.09 |
| GCUGAGAGUAUCCUUAUUCTT against 6330505N24Rik | inactive: -0.187 |
